Laboratory results: patent publication US20230142739A1, “PROTEIN-PROTEIN INTERACTION STABILIZERS” (The Regents of the University of California, priority 2020, published 2023)

Tested on: 14-3-3/ERα-pp
Test: Ligand-observed NMR (T1p relaxation, waterLOGSY)
Format: binding, human

CC(C)(Oc1ccc(Cl)cc1)C(=O)N1CCCCC1 [2-(4-chlorophenoxy)-2-methyl-1-(piperidin-1-yl)propan-1-one]
T1p self-relaxation (absence of protein-peptide, 10 ms and 200 ms, 200 μM ligand): 11%
T1p relaxation (presence of protein-peptide (10 μM 14-3-3σ, 15 μM ERα-pp, 200 μM ligand)): 42%
